# Primary screen of a compound library

Amino acid sequences for entries named in this document (tags omitted). Residues count along the entry.
UniProt P9WPC5, whole entry: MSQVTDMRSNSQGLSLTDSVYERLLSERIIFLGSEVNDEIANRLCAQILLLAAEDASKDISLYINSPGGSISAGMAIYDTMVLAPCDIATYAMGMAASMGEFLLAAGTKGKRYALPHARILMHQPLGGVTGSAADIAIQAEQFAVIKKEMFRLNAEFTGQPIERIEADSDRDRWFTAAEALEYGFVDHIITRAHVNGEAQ
UniProt P9WPC3, whole entry partner: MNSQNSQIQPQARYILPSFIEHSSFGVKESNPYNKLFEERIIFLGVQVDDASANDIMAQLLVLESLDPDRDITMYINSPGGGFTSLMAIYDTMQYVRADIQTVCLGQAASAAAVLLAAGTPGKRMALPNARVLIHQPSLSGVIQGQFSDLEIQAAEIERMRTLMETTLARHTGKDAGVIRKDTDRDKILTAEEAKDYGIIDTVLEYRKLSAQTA
UniProt P9WNZ1, whole entry: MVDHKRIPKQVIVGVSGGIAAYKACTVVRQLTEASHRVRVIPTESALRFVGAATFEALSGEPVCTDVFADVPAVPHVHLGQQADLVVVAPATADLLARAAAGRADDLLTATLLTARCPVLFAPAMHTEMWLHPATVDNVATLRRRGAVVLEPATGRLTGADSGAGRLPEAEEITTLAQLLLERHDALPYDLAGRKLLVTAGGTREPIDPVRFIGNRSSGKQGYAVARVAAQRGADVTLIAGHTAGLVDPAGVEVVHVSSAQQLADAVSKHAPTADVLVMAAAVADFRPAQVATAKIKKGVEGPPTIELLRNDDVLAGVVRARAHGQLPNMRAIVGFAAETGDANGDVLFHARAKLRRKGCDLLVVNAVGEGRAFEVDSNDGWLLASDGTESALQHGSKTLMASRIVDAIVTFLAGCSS
UniProt Q8IDJ8, 1-583: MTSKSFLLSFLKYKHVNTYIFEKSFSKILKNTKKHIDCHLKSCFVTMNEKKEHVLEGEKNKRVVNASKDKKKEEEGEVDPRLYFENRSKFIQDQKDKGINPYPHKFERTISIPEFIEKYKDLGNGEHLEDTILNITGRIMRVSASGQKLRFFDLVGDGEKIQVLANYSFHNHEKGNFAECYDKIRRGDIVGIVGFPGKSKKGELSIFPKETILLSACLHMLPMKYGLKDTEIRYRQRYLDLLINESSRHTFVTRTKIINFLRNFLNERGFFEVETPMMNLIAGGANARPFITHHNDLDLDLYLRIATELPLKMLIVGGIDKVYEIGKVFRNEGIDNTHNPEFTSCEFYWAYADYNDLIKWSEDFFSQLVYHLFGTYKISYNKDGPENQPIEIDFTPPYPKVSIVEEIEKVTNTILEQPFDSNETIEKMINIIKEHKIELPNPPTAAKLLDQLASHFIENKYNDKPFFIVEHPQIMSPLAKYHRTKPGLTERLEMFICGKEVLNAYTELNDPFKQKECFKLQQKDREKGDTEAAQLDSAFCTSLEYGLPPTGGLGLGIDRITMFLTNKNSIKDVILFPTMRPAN
UniProt Q4DA54, 1-478: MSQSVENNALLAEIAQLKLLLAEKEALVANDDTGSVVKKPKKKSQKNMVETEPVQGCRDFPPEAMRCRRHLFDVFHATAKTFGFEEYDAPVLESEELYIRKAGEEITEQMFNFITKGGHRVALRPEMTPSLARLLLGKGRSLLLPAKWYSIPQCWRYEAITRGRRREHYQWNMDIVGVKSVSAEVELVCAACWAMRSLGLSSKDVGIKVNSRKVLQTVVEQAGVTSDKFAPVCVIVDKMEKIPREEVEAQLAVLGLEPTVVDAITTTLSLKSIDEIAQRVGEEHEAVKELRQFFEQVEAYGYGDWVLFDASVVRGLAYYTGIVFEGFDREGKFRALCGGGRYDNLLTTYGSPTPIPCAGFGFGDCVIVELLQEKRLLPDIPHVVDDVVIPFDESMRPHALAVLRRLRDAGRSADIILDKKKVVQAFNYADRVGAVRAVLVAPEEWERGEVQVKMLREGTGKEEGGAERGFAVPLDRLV
UniProt I6X8D2, whole entry: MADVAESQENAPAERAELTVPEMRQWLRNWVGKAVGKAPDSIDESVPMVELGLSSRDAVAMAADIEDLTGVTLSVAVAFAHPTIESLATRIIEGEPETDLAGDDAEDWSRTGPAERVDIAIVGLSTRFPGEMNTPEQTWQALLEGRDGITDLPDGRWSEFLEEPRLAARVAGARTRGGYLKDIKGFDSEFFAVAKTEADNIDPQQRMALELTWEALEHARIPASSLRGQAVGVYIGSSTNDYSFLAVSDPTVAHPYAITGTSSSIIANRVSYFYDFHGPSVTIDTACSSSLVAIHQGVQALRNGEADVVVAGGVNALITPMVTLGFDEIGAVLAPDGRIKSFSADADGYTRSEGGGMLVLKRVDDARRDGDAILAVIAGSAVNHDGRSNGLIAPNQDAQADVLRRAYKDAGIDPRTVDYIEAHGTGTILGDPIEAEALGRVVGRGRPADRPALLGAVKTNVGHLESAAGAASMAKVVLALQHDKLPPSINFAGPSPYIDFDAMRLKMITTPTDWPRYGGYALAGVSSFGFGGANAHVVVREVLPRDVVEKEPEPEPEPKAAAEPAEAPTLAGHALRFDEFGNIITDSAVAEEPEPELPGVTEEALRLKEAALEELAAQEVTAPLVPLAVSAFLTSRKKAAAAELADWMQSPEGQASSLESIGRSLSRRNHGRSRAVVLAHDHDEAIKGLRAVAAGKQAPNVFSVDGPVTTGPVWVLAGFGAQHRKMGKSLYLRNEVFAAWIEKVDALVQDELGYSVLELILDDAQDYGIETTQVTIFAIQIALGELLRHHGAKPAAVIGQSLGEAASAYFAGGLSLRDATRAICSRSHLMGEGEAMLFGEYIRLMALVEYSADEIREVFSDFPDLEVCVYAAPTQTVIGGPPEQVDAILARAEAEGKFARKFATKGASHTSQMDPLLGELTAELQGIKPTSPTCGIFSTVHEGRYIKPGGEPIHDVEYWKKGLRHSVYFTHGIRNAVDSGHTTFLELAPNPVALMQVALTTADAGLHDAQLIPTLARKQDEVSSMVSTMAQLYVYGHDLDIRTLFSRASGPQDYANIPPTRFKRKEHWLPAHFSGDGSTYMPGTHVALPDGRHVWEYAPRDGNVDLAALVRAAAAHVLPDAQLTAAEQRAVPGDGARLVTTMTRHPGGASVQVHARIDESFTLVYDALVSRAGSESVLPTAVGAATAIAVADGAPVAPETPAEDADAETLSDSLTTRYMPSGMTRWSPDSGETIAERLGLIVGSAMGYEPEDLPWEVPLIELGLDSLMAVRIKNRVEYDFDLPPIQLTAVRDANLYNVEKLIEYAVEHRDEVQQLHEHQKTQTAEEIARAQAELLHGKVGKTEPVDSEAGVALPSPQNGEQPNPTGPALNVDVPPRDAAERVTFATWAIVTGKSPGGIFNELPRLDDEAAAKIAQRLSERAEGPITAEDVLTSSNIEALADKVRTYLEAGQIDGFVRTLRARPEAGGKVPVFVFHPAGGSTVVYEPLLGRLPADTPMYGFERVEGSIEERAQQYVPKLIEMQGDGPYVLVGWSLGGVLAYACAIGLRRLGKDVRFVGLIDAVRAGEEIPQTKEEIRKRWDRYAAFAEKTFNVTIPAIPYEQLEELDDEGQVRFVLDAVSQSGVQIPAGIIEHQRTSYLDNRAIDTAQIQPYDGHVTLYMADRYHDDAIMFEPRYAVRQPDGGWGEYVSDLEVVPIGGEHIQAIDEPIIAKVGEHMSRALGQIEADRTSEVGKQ

ClpP1P2: 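Protease assay of ClpP1P2, read by the AMC dye that it sets free. Target: ClpP1P2, Mycobacterium tuberculosis (UniProt P9WPC5 and UniProt P9WPC3). Compounds at 50 µM. Direction is inferred from only a few compounds that gave an IC50; most scored high, so higher reads as stronger inhibition. Most other retested compounds had strongly negative values. Of about 69,000 compounds tested this way, about 10 (0.015%) reached 50% or more in at least one test.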
CoaBC: 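Coenzyme A biosynthesis protein CoaBC, Mycobacterium tuberculosis (UniProt P9WNZ1). Enzyme assay of CoaBC with a phosphate dye (Biomol Green) read at 650 nm. Tested at 30 µM. Higher reads as stronger inhibition, judged from the few compounds that gave an IC50. Most strong results did not repeat in a second test. About 67,000 compounds were tested under these conditions; 0.06% (about 40) showed 50% or more at least once.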
PfKRS1: 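Lysine-tRNA ligase, Plasmodium falciparum 3D7 (UniProt Q8IDJ8). Enzyme assay of the cytosolic lysyl-tRNA synthetase in 384-well plates, read by luminescence. Compounds at 30 µM. Higher reads as stronger inhibition, judged from the few compounds that gave an IC50. About 69,000 compounds were tested under these conditions; 0.071% (about 49) showed 50% or more at least once.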
TcHisRS: 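Enzyme assay of histidyl-tRNA synthetase; the read-out is not stated. Target: Histidine-tRNA ligase, Trypanosoma cruzi CL Brener (UniProt Q4DA54). Compounds at 30 µM. The record gives no direction; compounds that gave an IC50 in retests scored well above the rest, so higher reads as stronger inhibition. About 69,000 compounds were tested under these conditions; 0.045% (about 31) showed 50% or more at least once.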
Pks13 thioesterase: 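Enzyme assay of the thioesterase domain of polyketide synthase 13; the read-out is not stated. Target: Polyketide synthase Pks13, Mycobacterium tuberculosis (UniProt I6X8D2). Compounds at 30 µM. Higher reads as stronger inhibition (inferred from which compounds were picked for retests). Of about 67,000 compounds tested this way, about 300 (0.46%) reached 50% or more in at least one test.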

Each number is a percent effect as filed. How 0% and 100% were set is not recorded. Most values in the screen are low, and negative values occur. The compounds are a random part of those screened. Two or more numbers in one place are separate tests of the same structure; such repeats can differ widely.

c1ccc(-c2nnc(CN3C[C@@H]4CC[C@H](C3)N(CC3CCC3)C4)o2)cc1 gave ClpP1P2: 4.477%; CoaBC: 2.481%; PfKRS1: 0.729%; TcHisRS: 13.29%; Pks13 thioesterase: -13.44%. Result for Cc1nnn2c1COCC(CNCc1nccs1)C2 (stereo unspecified) was ClpP1P2: 0.2479%; CoaBC: 0.7389%; PfKRS1: 6.564%; TcHisRS: 1.031%; Pks13 thioesterase: -4.979%. With CSc1cccc(NC(=O)N2CCC3(CCC(=O)N(C4CC4)C3)CC2)c1 the screen gave ClpP1P2: 1.484%; CoaBC: -3.125%; PfKRS1: 1.981%; TcHisRS: 7.182%; Pks13 thioesterase: -39.02%. CC(C)N[C@@H]1CO[C@H](CNC(=O)Nc2ccccc2)[C@H]1O read ClpP1P2: -15.86%; CoaBC: 7.285%; PfKRS1: 3.607%; TcHisRS: 3.261%; Pks13 thioesterase: 0.05915%. Result for Cc1nnc(NC(=O)NCc2ccoc2)s1 was ClpP1P2: -2.938%; CoaBC: 6.93%; PfKRS1: 0.9405%; TcHisRS: 7.429%; Pks13 thioesterase: -15.18%. N#Cc1c(Cl)nsc1NCC1(c2ccccc2)CCC1 read ClpP1P2: 9.117%; CoaBC: 3.733%; PfKRS1: 7.314%; TcHisRS: -5.172%.

Cc1cnn(CC2CCCN2CC(=O)NCc2ccccn2)c1 (stereo unspecified) gave ClpP1P2: -10.82%; CoaBC: -0.9223%; PfKRS1: 1.856%; TcHisRS: -5%; Pks13 thioesterase: 0.3253%. Cn1ccnc1CN1CCOCC(Cc2ccccn2)C1 (stereo unspecified) gave ClpP1P2: 2.95%; CoaBC: -2.225%; PfKRS1: 2.831%; TcHisRS: 1.075%; Pks13 thioesterase: -8.622%. With CCC1CN(CCCO)c2ccccc2O1 (stereo unspecified) the screen gave ClpP1P2: 8.117%; CoaBC: 5.405%; PfKRS1: 1.426%; TcHisRS: 8.235%; Pks13 thioesterase: -16.29%. Result for Cc1c(CN2CCCC(n3c(=O)oc4ccccc43)C2)cnn1C (stereo unspecified) was ClpP1P2: -1.04%; CoaBC: -4.205%; PfKRS1: -0.2988%; TcHisRS: 0.7576%; Pks13 thioesterase: -18.42%. For O=C(C1CCCO1)N1CCC(n2cc(-c3ccsc3)nn2)CC1 (stereo unspecified) the result was ClpP1P2: -2.873%; CoaBC: -4.054%; PfKRS1: 5.352%; TcHisRS: 0%; Pks13 thioesterase: 21.74%. O=C(NC1CC1)C1(Cc2ccccc2-c2ccncc2)CCOCC1 gave ClpP1P2: -9.759%; CoaBC: 0.8653%; PfKRS1: -0.1519%; TcHisRS: -1.521%; Pks13 thioesterase: 9.975%.

CCN(C(c1cccnc1)c1ccc(F)c(F)c1)S(C)(=O)=O (stereo unspecified) read ClpP1P2: 17.76%; CoaBC: 2.593%; PfKRS1: 1.767%; TcHisRS: 3.03%; Pks13 thioesterase: -34.78%. CN(C)C(=O)c1ccc(C(C(=O)O)N(C)Cc2ccccc2Cl)cc1 (stereo unspecified) gave ClpP1P2: 0.8107%; CoaBC: 20% and 14.81%; PfKRS1: 6.614%; TcHisRS: 2.299%; Pks13 thioesterase: -37.01%. Result for O=C(NCc1ccoc1)NC1CCCN(c2ncccn2)C1 (stereo unspecified) was ClpP1P2: -5.119%; CoaBC: 7.962%; PfKRS1: 1.73%; TcHisRS: 2.174%; Pks13 thioesterase: -39.89%. With Fc1cccc(-c2nc(CN3CCOC(Cn4cncn4)C3)co2)c1 (stereo unspecified) the screen gave ClpP1P2: 4.478%; CoaBC: -2.057%; PfKRS1: 1.861%; TcHisRS: -0.7519%; Pks13 thioesterase: -28.24%. For O=C(NC1COC2(CCN(Cc3cccs3)CC2)C1)c1ccccn1 (stereo unspecified) the result was ClpP1P2: 7.084%; CoaBC: 0.6316%; PfKRS1: 2.097%; TcHisRS: 4.301%; Pks13 thioesterase: -37.81%. With COCCNC(=O)[C@H]1C[C@@H]2CCN(c3ncccn3)C[C@@H]2O1 the screen gave ClpP1P2: -14%; CoaBC: -3.951%; PfKRS1: -4.376%; TcHisRS: 0%; Pks13 thioesterase: -12.04%.

CS(=O)(=O)CCn1ccc(NC(=O)CCc2cccc(F)c2)n1 gave ClpP1P2: -12.7%; CoaBC: 4.061%; PfKRS1: 8.186%; TcHisRS: 1.345%; Pks13 thioesterase: -28.08%. Cc1cccc(COC[C@@H]2CC[C@H]3[C@H](CCN3C(=O)CC3CC3)O2)n1 gave ClpP1P2: -5.74%; CoaBC: 7.046%; PfKRS1: 2.753%; TcHisRS: 8.163%; Pks13 thioesterase: 0.915%. Result for NCC1Cc2cc(-c3nccc(N4CCC(O)CC4)n3)cc(Cl)c2O1 (stereo unspecified) was ClpP1P2: -0.6571%; CoaBC: 32.8% and 36.07%; PfKRS1: -0.06961%; TcHisRS: 53.06%; Pks13 thioesterase: -31.52%. For CCCn1cc(C(=O)N2CCCC2(C)c2nc(C)cc(C)n2)cn1 (stereo unspecified) the result was ClpP1P2: 9.382%; CoaBC: 0.2331%; PfKRS1: 0.1068%; TcHisRS: 13.91%; Pks13 thioesterase: 4.018%. Result for Cc1ncc2c(n1)CN(CCCc1ccccc1)CC2 was ClpP1P2: -31.15%; CoaBC: -20%; PfKRS1: 0.8858%; TcHisRS: 20.75%; Pks13 thioesterase: 9.847%. COc1ccc(C(=O)N2CCCC2c2cnn(C)c2)cn1 (stereo unspecified) gave ClpP1P2: -13.37%; CoaBC: 2.937%; PfKRS1: -2.154%; TcHisRS: 4.046%; Pks13 thioesterase: -11.17%.

For Cc1cnn(CC2CCCCN2C(=O)c2ccc3[nH]cnc3c2)c1 (stereo unspecified) the result was ClpP1P2: -34.67%; CoaBC: 4.178%; PfKRS1: 1.449%; TcHisRS: 4.956%; Pks13 thioesterase: -25.02%. With Cc1c(NC(=O)NC2CN3CCC2CC3)cccc1C(=O)N1CCCC1 (stereo unspecified) the screen gave ClpP1P2: 29.74%; CoaBC: 5.66%; PfKRS1: -10.85%; TcHisRS: -1.031%; Pks13 thioesterase: -11.19%.

The first 3 entries again:

c1ccc(-c2nnc(CN3C[C@@H]4CC[C@H](C3)N(CC3CCC3)C4)o2)cc1 gave ClpP1P2: 4.477%; CoaBC: 2.481%; PfKRS1: 0.729%; TcHisRS: 13.29%; Pks13 thioesterase: -13.44%.
Cc1nnn2c1COCC(CNCc1nccs1)C2 (stereo unspecified) gave ClpP1P2: 0.2479%; CoaBC: 0.7389%; PfKRS1: 6.564%; TcHisRS: 1.031%; Pks13 thioesterase: -4.979%.
CSc1cccc(NC(=O)N2CCC3(CCC(=O)N(C4CC4)C3)CC2)c1 gave ClpP1P2: 1.484%; CoaBC: -3.125%; PfKRS1: 1.981%; TcHisRS: 7.182%; Pks13 thioesterase: -39.02%.

Measurements from “University of Dundee, Small-Polar-MMV Screening Library” (2021), ChEMBL document CHEMBL3988442.